Values of other authors, collected in patent publication US11013708B2, “Prevention of psychotic disorders and/or treatment of psychotic symptoms” (Orygen Youth Health Research Centre, priority 2008, dated 2021).
At least one structure is not confirmed: it was looked up by name or label, or the drawing left a doubt.

System: ultra-high-risk groups
Conditions: 12 months intervention vs placebo

Cc1cc2c(s1)Nc1ccccc1N=C2N1CCN(C)CC1 [olanzapine]
efficacy of preventive intervention vs comparator: no significant intervention group differences
